# Reference: the supplement of paper PMC6411743
# Chains of the proteins cited; added tags and fusions are not shown. Lines headed by an entry give the natural chain unless they say otherwise; changes in a name come on top.
# UniProt P30203: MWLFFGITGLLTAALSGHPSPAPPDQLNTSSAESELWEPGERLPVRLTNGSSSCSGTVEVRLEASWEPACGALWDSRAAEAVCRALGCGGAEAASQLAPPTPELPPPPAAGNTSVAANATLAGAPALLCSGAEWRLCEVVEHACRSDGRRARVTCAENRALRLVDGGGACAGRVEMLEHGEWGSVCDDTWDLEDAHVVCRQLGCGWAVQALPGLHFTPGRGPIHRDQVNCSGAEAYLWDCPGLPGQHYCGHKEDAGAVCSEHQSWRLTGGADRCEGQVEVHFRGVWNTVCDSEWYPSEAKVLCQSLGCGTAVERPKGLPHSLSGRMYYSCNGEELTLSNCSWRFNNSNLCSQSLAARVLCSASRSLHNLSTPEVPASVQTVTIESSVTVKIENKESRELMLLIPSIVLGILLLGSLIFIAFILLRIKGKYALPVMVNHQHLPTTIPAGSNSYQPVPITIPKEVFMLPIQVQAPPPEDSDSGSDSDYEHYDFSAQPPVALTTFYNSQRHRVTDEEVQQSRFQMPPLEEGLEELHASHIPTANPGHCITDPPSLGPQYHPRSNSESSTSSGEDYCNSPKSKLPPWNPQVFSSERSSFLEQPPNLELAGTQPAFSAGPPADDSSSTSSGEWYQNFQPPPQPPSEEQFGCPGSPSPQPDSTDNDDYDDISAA
# UniProt Q8N5C8: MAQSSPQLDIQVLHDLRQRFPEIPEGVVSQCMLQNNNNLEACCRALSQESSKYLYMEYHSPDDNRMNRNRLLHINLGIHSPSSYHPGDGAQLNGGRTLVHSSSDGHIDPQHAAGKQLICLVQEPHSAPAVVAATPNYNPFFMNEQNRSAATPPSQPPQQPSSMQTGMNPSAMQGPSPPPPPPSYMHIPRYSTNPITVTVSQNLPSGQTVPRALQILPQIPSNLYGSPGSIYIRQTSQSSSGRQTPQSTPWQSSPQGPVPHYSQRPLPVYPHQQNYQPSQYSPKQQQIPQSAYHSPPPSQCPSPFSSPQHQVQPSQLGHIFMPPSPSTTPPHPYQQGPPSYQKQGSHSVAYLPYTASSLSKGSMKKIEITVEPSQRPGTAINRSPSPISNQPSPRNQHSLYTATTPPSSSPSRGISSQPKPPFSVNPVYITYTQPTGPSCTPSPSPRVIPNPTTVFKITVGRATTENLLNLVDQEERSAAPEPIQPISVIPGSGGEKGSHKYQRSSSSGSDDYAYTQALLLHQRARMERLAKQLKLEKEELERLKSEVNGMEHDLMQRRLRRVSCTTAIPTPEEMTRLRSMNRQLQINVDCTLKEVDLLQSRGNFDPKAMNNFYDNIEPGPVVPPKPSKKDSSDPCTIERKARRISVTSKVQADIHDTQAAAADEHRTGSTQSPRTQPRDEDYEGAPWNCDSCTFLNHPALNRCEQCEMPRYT
# UniProt Q92994: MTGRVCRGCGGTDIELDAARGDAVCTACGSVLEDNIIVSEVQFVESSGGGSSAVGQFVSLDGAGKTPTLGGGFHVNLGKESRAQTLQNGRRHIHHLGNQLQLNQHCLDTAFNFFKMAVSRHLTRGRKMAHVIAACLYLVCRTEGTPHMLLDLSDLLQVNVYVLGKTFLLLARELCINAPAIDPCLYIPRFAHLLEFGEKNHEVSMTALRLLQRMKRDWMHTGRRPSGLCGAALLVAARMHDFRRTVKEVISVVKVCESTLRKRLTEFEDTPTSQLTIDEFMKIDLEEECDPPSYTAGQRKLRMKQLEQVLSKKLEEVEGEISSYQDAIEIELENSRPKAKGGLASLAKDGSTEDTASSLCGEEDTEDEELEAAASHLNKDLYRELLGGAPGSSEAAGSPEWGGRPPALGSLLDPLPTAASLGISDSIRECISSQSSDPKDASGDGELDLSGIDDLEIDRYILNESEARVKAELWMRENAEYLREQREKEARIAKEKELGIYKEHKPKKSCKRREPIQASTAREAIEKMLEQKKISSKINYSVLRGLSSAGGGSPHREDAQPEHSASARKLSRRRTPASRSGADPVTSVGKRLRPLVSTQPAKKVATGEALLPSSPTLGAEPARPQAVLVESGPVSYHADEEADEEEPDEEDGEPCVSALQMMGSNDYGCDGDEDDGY
# UniProt P34913, whole entry: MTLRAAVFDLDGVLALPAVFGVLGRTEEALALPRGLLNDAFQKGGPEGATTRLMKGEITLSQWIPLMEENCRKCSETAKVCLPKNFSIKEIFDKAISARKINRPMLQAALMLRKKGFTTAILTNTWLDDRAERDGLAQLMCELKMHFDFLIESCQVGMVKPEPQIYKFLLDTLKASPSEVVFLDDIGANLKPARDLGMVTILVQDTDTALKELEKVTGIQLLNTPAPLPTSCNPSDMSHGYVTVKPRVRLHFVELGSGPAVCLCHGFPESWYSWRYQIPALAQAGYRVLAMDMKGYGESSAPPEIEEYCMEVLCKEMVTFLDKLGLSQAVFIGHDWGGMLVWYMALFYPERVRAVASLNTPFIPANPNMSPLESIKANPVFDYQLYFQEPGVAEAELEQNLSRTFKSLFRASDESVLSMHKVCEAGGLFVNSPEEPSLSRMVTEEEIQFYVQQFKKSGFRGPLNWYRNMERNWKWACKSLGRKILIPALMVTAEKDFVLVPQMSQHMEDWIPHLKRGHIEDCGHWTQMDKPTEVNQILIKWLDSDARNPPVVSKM
# UniProt Q9Y467: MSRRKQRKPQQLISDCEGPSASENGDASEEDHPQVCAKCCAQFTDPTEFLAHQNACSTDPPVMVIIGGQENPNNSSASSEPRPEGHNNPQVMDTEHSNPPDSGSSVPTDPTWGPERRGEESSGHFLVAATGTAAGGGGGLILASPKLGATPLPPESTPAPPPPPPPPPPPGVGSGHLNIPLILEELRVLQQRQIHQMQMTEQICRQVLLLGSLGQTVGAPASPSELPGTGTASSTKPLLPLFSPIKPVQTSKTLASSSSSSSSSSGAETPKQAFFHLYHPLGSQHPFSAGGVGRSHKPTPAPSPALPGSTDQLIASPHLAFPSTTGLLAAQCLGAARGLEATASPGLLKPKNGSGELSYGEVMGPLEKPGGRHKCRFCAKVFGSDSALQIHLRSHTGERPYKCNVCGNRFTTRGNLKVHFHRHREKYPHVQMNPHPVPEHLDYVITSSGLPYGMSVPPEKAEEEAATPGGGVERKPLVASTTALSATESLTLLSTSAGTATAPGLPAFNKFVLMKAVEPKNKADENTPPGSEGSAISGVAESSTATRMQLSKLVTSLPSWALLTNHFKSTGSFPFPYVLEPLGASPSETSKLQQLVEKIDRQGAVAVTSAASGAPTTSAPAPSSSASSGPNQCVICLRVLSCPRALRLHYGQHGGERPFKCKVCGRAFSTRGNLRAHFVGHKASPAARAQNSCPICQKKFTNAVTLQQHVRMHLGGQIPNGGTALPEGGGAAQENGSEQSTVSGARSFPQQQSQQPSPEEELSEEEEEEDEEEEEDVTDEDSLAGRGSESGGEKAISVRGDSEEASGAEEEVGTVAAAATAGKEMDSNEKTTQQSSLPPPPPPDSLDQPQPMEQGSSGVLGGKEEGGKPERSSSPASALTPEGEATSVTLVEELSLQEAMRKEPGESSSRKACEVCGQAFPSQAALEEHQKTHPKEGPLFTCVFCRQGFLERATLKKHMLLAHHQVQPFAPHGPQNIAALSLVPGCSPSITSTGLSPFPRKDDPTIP
# UniProt P15311, whole entry: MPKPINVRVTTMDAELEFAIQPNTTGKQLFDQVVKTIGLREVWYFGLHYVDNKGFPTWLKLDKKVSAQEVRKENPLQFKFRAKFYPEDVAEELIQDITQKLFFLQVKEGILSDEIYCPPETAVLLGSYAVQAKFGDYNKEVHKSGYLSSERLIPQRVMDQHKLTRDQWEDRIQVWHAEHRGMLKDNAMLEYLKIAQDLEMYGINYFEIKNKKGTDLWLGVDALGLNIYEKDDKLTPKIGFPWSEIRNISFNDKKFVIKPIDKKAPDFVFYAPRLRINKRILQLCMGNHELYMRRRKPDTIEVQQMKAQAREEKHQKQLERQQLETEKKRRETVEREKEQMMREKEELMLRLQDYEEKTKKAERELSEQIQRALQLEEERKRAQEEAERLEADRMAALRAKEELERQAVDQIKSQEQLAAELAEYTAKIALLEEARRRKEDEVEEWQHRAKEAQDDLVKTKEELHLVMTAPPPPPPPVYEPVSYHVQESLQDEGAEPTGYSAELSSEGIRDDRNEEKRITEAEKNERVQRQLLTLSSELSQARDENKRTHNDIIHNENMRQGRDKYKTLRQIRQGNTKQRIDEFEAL
# UniProt Q8N4H5: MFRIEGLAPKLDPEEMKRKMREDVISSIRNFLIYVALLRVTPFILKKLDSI
# UniProt O95831, whole entry: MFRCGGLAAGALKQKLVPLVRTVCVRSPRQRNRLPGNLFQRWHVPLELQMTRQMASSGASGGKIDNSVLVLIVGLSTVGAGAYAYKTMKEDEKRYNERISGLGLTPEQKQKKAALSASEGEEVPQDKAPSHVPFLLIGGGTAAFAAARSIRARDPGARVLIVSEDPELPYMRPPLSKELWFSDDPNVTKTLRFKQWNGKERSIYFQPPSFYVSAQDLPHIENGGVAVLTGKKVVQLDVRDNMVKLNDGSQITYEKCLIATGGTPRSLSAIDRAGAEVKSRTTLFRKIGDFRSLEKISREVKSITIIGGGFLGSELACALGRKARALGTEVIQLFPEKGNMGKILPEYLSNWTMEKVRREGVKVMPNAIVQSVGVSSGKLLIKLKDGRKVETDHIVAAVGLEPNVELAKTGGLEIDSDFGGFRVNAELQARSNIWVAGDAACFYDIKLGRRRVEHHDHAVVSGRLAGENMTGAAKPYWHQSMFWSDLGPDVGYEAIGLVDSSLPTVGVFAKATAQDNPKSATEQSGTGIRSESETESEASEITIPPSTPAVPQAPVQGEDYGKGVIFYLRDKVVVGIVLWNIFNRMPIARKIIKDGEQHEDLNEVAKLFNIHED
# UniProt Q9UI10, whole entry: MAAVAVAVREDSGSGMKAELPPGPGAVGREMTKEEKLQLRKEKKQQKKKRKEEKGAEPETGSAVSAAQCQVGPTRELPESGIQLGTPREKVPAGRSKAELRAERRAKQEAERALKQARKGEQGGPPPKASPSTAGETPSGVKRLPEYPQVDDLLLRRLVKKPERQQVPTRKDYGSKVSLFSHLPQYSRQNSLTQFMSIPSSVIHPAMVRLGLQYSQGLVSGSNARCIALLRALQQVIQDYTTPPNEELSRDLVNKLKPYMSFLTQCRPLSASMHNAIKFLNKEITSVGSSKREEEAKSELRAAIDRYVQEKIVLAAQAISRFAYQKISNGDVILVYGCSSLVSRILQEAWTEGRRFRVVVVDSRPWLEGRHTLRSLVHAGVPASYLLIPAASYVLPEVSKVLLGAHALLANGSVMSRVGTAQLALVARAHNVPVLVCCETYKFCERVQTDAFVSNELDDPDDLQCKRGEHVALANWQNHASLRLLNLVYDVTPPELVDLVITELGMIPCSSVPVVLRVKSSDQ
# UniProt P29597: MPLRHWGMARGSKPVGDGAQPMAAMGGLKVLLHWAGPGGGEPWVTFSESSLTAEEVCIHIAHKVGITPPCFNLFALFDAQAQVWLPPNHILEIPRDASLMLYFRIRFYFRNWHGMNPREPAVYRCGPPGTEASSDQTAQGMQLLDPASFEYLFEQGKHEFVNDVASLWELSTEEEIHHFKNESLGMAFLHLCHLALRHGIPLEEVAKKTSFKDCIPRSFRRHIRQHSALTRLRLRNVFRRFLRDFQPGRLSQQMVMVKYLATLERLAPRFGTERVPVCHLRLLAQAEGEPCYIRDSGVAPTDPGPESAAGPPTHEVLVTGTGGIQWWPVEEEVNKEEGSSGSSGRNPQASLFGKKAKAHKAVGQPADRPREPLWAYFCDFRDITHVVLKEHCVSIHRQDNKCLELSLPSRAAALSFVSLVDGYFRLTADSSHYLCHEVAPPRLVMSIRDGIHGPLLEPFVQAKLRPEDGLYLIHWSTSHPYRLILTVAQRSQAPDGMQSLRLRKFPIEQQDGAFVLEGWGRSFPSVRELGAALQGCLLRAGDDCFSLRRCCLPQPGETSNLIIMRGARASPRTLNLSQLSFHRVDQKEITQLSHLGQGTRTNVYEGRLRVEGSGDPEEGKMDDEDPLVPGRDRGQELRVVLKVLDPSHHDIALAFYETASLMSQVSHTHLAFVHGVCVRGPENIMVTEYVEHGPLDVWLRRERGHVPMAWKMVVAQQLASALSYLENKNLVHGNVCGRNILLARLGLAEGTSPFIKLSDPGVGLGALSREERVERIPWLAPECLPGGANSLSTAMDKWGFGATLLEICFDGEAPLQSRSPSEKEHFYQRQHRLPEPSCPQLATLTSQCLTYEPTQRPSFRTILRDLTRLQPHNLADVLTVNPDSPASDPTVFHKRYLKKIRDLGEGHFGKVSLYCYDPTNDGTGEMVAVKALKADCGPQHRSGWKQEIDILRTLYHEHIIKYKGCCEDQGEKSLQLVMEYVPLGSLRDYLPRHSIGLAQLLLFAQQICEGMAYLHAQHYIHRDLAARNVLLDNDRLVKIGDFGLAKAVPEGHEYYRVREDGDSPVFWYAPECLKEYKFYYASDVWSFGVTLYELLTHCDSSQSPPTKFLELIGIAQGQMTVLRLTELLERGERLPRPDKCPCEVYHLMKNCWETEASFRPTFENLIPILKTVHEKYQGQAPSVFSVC
# ± gives the standard deviation of the averaged measurements. The entries are a selection whose mix differs from that of the whole data set. Small differences around the control level are noise.
# Compound: Nc1ncnc2c1ncn2[C@@H]1O[C@H](COP(=O)(O)OP(=O)(O)OP(=O)(O)O)[C@@H](O)[C@H]1O [adenosine triphosphate]
# Test: NP40-soluble protein abundance relative to vehicle (solubility fold change) (ratio); higher = more soluble protein in presence of ATP
# Outline: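 Across three independent experiments, values are fold changes against the detergent-processed vehicle for each replicate, based on vsn-normalised intensities. The samples were Jurkat crude lysate treated with eight concentrations (0.1 to 10 mM) for 10 min at room temperature and then 3 min at 37 °C. Lysate was solubilised with 0.8% NP40 and benzonase, ultracentrifuged, and the supernatant analysed by TMT-labelled LC-MS/MS.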
Target,NP40-soluble protein abundance (concentration: 0.1mM),NP40-soluble protein abundance (concentration: 0.5mM)
E9PIC6 and related entries (UniProt P06746),1.04 ± 0.048,1.11 ± 0.077
F5GXE4 and related entries (UniProt O95260),1.03 ± 0.1,1.02 ± 0.069
E7EQL8 and related entries (UniProt Q96RT7),0.965 ± 0.15,0.973 ± 0.15
E7EW84 and related entries (UniProt Q8TAG9),1.01 ± 0.059,0.971 ± 0.044
E9PQ57 and related entries (UniProt P78406),1.02 ± 0.055,1.06 ± 0.042
E9PIV2 and related entries (UniProt P24001),0.902 ± 0.093,0.879 ± 0.15
E7EMM4 and related entries (UniProt Q13510),0.956 ± 0.063,0.923 ± 0.073
E9PIE4 and related entries (UniProt Q9Y6C9),1.04 ± 0.036,1 ± 0.071
G3XA86 and related entries (UniProt Q9Y2Z9),1.08 ± 0.061,1.02 ± 0.024
G5E973 and related entries (UniProt P30203),1.01 ± 0.019,0.995 ± 0.036
F8W8D3 and related entries (UniProt Q14493),1.01 ± 0.021,1.03 ± 0.056
F6SS63 and related entries (UniProt Q8N5C8),1.01 ± 0.12,0.94 ± 0.19
F6XUP2 and related entries (UniProt O43861),1.01 ± 0.12,1.13 ± 0.16
E5RJD8 and related entries (UniProt O75347),0.907 ± 0.055,0.951 ± 0.063
E5RJF8 and related entries (UniProt O15182),0.901 ± 0.058,0.946 ± 0.11
E9PKB1 and related entries (UniProt Q0P6D6),0.967 ± 0.14,1.04 ± 0.17
F8VXG7 and related entries (UniProt Q99590),1.04 ± 0.045,1.26 ± 0.069
F5GZS6 and related entries (UniProt P08195),0.949 ± 0.032,0.932 ± 0.011
G3V4K3 and related entries (UniProt Q9H9C1),1.05 ± 0.046,1 ± 0.12
F8WA39 and related entries (UniProt Q13613),1.06 ± 0.022,1.04 ± 0.046
F8VS36 and related entries (UniProt Q92994),0.985 ± 0.049,0.984 ± 0.069
F5GZ90 and related entries (UniProt Q9NZJ0),0.989 ± 0.043,0.957 ± 0.034
G3XAN4 and related entries (UniProt Q15629),0.946 ± 0.035,1.01 ± 0.07
F5GX51 and related entries (UniProt Q9Y4F9),1.02 ± 0.019,1.04 ± 0.04

Target,NP40-soluble protein abundance (concentration: 0.1mM),NP40-soluble protein abundance (concentration: 0.5mM)
F5H7W8 and related entries (UniProt Q96C57),0.953 ± 0.095,0.992 ± 0.079
F5GYQ1 and related entries (UniProt P61421),1.05 ± 0.11,1.03 ± 0.053
E5RFU2 and related entries (UniProt P34913),0.997 ± 0.014,0.996 ± 0.015
F8VXU5 and related entries (UniProt Q9UBQ0),0.993 ± 0.072,0.96 ± 0.029
E7EPJ9 and related entries (UniProt P05120),0.927 ± 0.025,0.852 ± 0.014
E7EVC7 and related entries (UniProt Q676U5),1.01 ± 0.052,1.02 ± 0.026
E9PFB9 and related entries (UniProt Q5T9S5),0.928 ± 0.051,0.945 ± 0.028
D6RIF6 and related entries (UniProt Q9P270),0.938 ± 0.019,0.968 ± 0.021
E7ETY2 and related entries (UniProt Q13428),1.07 ± 0.047,1.18 ± 0.068
F5GWD3 and related entries (UniProt Q13889),1.03 ± 0.022,1.04 ± 0.064
E7EQT4 and related entries (UniProt Q9UKV3),0.974 ± 0.044,1.01 ± 0.063
F6X3N5 and related entries (UniProt P62873),1.02 ± 0.017,0.985 ± 0.018
E7EW59 and related entries (UniProt Q9Y467),1.02 ± 0.035,1.05 ± 0.12
F8W1A4 and related entries (UniProt P54819),0.948 ± 0.061,0.956 ± 0.031
E5RIM7 and related entries (UniProt O00244),0.853 ± 0.12,0.864 ± 0.2
G3V1P3 and related entries (UniProt Q969J3+G3V1P3),0.984 ± 0.034,0.971 ± 0.074
E9PGT6 and related entries (UniProt Q99627),0.993 ± 0.02,0.962 ± 0.039
G3V5X4 and related entries (UniProt Q8WXH0),0.9989 ± 0.005,1.01 ± 0.038
F8WEA6 and related entries (UniProt O75439),1 ± 0.06,1.05 ± 0.089
E7EX17 and related entries (UniProt P23588),0.986 ± 0.02,0.987 ± 0.039
E9PMH5 and related entries (UniProt Q13490),1.04 ± 0.13,1.05 ± 0.065
F5H6I7 and related entries (UniProt Q6DD88),1.03 ± 0.051,1.06 ± 0.058
F5H7T0 and related entries (UniProt Q96S38),0.994 ± 0.11,0.975 ± 0.074
E9PJF5 and related entries (UniProt Q9HCU9),0.919 ± 0.18,0.953 ± 0.16

Target,NP40-soluble protein abundance (concentration: 0.1mM),NP40-soluble protein abundance (concentration: 0.5mM)
F8W8G5 and related entries (UniProt P10242),1 ± 0.012,1.1 ± 0.068
E7EXA6 and related entries (UniProt Q8WVB6),1.05 ± 0.023,1.24 ± 0.1
E9PHV5 and related entries (UniProt P28290),1.03 ± 0.099,1.08 ± 0.13
E9PS17 and related entries (UniProt Q96KG9),1.01 ± 0.03,0.991 ± 0.071
F8VVA7 and related entries (UniProt P61923),1.02 ± 0.059,1.01 ± 0.11
E7EQR4 and related entries (UniProt P15311),1.03 ± 0.06,1.03 ± 0.075
E7ETU7 and related entries (UniProt P09001),0.936 ± 0.1,0.999 ± 0.075
E7EQZ4 and related entries (UniProt Q16637),0.92 ± 0.14,0.951 ± 0.13
E9PCW1 and related entries (UniProt O95249),0.952 ± 0.051,0.935 ± 0.072
F5GXX5 and related entries (UniProt P61803),0.8713 ± 0.0032,0.931 ± 0.044
E7EVA8 and related entries (UniProt Q9BY41),1.05 ± 0.08,1.07 ± 0.14
F8W8Z9 and related entries (UniProt Q8N4H5),0.822 ± 0.16,0.845 ± 0.25
E9PI54 and related entries (UniProt Q06609),1.06 ± 0.026,1.09 ± 0.072
E9PFW2 and related entries (UniProt O00462),1.07 ± 0.083,1.03 ± 0.043
G3XAI2 and related entries (UniProt P07942),0.967 ± 0.19,0.98 ± 0.15
E9PDP5 and related entries (UniProt Q8IWZ3),0.996 ± 0.018,0.967 ± 0.024
F5H702 and related entries (UniProt Q96GC5),0.996 ± 0.048,1.04 ± 0.062
F8WET0 and related entries (UniProt Q8IW19),1.12 ± 0.15,1.15 ± 0.19
G3V1C3 and related entries (UniProt Q9BZZ5),0.964 ± 0.014,0.9323 ± 0.0065
E9PRR0 and related entries (UniProt O95831),1.04 ± 0.07,1.05 ± 0.049
E7EM64 and related entries (UniProt Q7L5N1),1.07 ± 0.079,1.07 ± 0.085
F5H8H2 and related entries (UniProt Q03426),1.03 ± 0.068,1.05 ± 0.09
F8VYC4 and related entries (UniProt P0DJD1+P0DJD0+F8VYC4),1.01 ± 0.09,1.01 ± 0.027
E5KP25 and related entries (UniProt Q9UIF7),0.951 ± 0.044,0.957 ± 0.046

Target,NP40-soluble protein abundance (concentration: 0.1mM),NP40-soluble protein abundance (concentration: 0.5mM)
E2QRB3 and related entries (UniProt P32322),0.989 ± 0.015,1.01 ± 0.035
F5GX09 and related entries (UniProt Q5HYJ3),0.9711 ± 0.008,0.97 ± 0.011
E7END7 and related entries (UniProt P62820),1.03 ± 0.062,1.04 ± 0.042
E7EMS2 and related entries (UniProt P61916),0.939 ± 0.049,0.943 ± 0.046
E7ERK9 and related entries (UniProt Q9UI10),1.005 ± 0.0094,0.988 ± 0.057
F2Z2U4 and related entries (UniProt Q9Y4A5),1.02 ± 0.013,1.03 ± 0.014
E9PHY5 and related entries (UniProt O43491),0.996 ± 0.033,0.992 ± 0.039
F2Z3D9 and related entries (UniProt O43709),1 ± 0.035,1.07 ± 0.086
E9PL57 and related entries (UniProt Q15843),0.878 ± 0.14,0.88 ± 0.11
E9PM92 and related entries (UniProt O00193+E9PM92),0.816 ± 0.14,0.799 ± 0.096
E9PM19 and related entries (UniProt P29597),1.2 ± 0.18,1.25 ± 0.057
F5H0R1 and related entries (UniProt Q9H6E5),0.994 ± 0.01,0.985 ± 0.013
F8VSL3 and related entries (UniProt P25208),1.03 ± 0.056,0.962 ± 0.06
E7EQ34 and related entries (UniProt O14653+I3L4Z6+E7EQ34),0.992 ± 0.074,1.04 ± 0.073
F8VU90 and related entries (UniProt Q9NYL4),0.823 ± 0.031,0.843 ± 0.042
G5E9C0 and related entries (UniProt Q9HB58),1.03 ± 0.067,1.145 ± 0.0083
E7ER26 and related entries (UniProt P57071),1.04 ± 0.028,0.973 ± 0.12
E9PFK9 and related entries (UniProt Q9UJ41),1 ± 0.019,0.993 ± 0.027
E7ET39 and related entries (UniProt Q8NDZ4),1.03 ± 0.06,1.03 ± 0.15
E9PR30 and related entries (UniProt P62861),0.859 ± 0.11,0.913 ± 0.19
F8VRH0 and related entries (UniProt Q15366),0.979 ± 0.029,1.02 ± 0.031
